This experiment addresses biotinylated WNV NS5 PBM peptide (West Nile virus). Briefly: condition: BI < 0.15 (threshold for a significant interaction 0.2); holdup assay (automated high-throughput chromatography); biotinylated NS5 PBM peptide as bait against 259 human PDZ domains expressed in E. coli; read-out binding intensity (BI), mean of replicates; BI threshold 0.2 for a significant interaction.

No constants are given. Whether binding was seen depends on the method and setting.

B1: PDZ domain-containing protein 4, PDZ domain (holdup construct) (domain or fragment, UniProt Q76G19 130-214)
chain: EVELYKSSHRDKLGLMVCYRTDDEEDLGIYVGEVNPNSIAAKDGRIREGDRIIQINGVDVQNREEAVAILSQEENTNISLLVARP
B1: the binding result is recorded as “no binding”.

B2: 26S proteasome non-ATPase regulatory subunit 9, PDZ domain (holdup construct) (domain or fragment, UniProt O00233 108-195)
chain: QARDMAEAHKEAMSRKLGQSESQGPPRAFAKVNSISPGSPASIAGLQVDDEIVEFGSVNTQNFQSLHNIGSVVQHSEGKPLNVTVIRR
For B2, the binding result is on record as “no binding”.

B3: T-lymphoma invasion and metastasis-inducing protein 2, PDZ domain (holdup construct) (domain or fragment, UniProt Q8IVF5 890-976)
chain: DVQLTKTGSVCDFGFAVTAQVDERQHLSRIFISDVLPDGLAYGEGLRKGNEIMTLNGEAVSDLDLKQMEALFSEKSVGLTLIARPPD
Turning to B3, the binding result is “no binding”.

B4: Regulating synaptic membrane exocytosis protein 2, PDZ domain (holdup construct) (domain or fragment, UniProt Q9UQ26 668-754)
chain: DGSVPRDSGAMLGLKVVGGKMTESGRLCAFITKVKKGSLADTVGHLRPGDEVLEWNGRLLQGATFEEVYNIILESKPEPQVELVVSR
As to B4, the binding entry is “no binding”.

B5: Protein piccolo, PDZ domain (holdup construct) (domain or fragment, UniProt Q9Y6V0 4496-4590)
chain: RIKITRDSKDHTVSGNGLGIRIVGGKEIPGHSGEIGAYIAKILPGGSAEQTGKLMEGMQVLEWNGIPLTSKTYEEVQSIISQQSGEAEICVRLDL
For the molecule B5, the binding entry is given as “no binding”.

B6: PDZ domain-containing protein GIPC3, PDZ domain (holdup construct) (domain or fragment, UniProt Q8TF64 112-192)
chain: EVEVTKTEDALGLTITDNGAGYAFIKRIKEGSIINRIEAVCVGDSIEAINDHSIVGCRHYEVAKMLRELPKSQPFTLRLVQ
For the molecule B6, the binding result is “no binding”.

B7: MAGUK p55 subfamily member 5, PDZ domain (holdup construct) (domain or fragment, UniProt Q8N3R9 256-336)
chain: IVRIEKARDIPLGATVRNEMDSVIISRIVKGGAAEKSGLLHEGDEVLEINGIEIRGKDVNEVFDLLSDMHGTLTFVLIPSQ
B7: the binding result is “no binding”.

B8: PDZ and LIM domain protein 1, PDZ domain (holdup construct) (domain or fragment, UniProt O00151 3-85)
chain: TQQIDLQGPGPWGFRLVGGKDFEQPLAISRVTPGSKAALANLCIGDVITAIDGENTSNMTHLEAQNRIKGCTDNLTLTVARSE
In the case of B8, the binding result is recorded as “no binding”.

For the origin of these results see article PMC7865074.
